Data reported in paper PMC12040169 (PLOS Biology, 2025).
The other results are listed elsewhere or left out.

System: T1, CTL2-GFP (C. trachomatis L2/434/Bu, GFP-expressing)
T1 construct: L2/434/Bu, GFP-expressing
Design: species or system HeLa; Intracellular C. trachomatis growth in HeLa cells, bulk GFP fluorescence relative to DMSO
Details: bulk GFP, single well; 28.5 h, 10 µM; inhibitor

Question: Which “% of control remaining” value does the source give for COc1ccc(-c2cnc(NCCOc3ccccc3)c(C(=O)NCC3COc4ccccc4O3)c2)cc1 (stereo not shown) [CBK076332] here?
Answer: 84.3486%

Question: How did the “% of control remaining” value turn out when CCC(Sc1nc2ccc(F)cc2[nH]1)C(=O)O (stereo not shown) [CBK287174] was run?
Answer: 89.8915%

Question: Which “% of control remaining” value does the source give for Cc1ccc(Nc2cc(-c3ccsc3)ncn2)cc1NS(C)(=O)=O [CBK091149] here?
Answer: 112.694%

Question: Which “% of control remaining” value does the source give for COc1cc2c(cc1OC)CN(CC(O)COc1cccc3c1CCCC3)CC2 (stereo not shown) [CBK003828] here?
Answer: 102.077%

Question: With CSc1ncccc1C(=O)NCc1ccc(NC(C)=O)cc1 [CBK305009] as the molecule, how does the “% of control remaining” value read?
Answer: 119.918%

Question: How did the “% of control remaining” value turn out when Nc1nc2cccnc2cc1-c1cccc(C(F)(F)F)c1 [CBK081200] was run?
Answer: 62.4237%

Question: How did the “% of control remaining” value turn out when O=C(NC(Cc1ccccc1)N1C(=O)c2ccccc2C1=O)N1CCCc2ccccc21 (stereo not shown) [CBK265551] was run?
Answer: 91.6846%

Question: O=C(Nc1ccccc1[N+](=O)[O-])C1(c2ccccc2)CCN(S(=O)(=O)c2ccccc2)CC1 [CBK267796] was tested. Which “% of control remaining” value did it give?
Answer: 122.649%

Question: With Nc1ncnc2c1nc1n2[C@H]2C[C@@H](O)[C@H](O2)[C@H]1O [CBK201183] as the molecule, how does the “% of control remaining” value read?
Answer: 150.745%

Question: For O=C(OCc1ccccc1)N1CCC(n2ccn(C(=O)CCC3CCCC3)c2=O)CC1 [CBK106670], which “% of control remaining” value is on record?
Answer: 100%

Question: With Cc1cc(C(=O)N2CCCc3ccccc32)n[nH]1 [CBK200346] as the molecule, how does the “% of control remaining” value read?
Answer: 164.915%

Question: How did the “% of control remaining” value turn out when CC(C)(C)c1ccc(-c2cnc3nc(O)ccc3c2)cc1 [CBK081284] was run?
Answer: 145.043%

Question: Which “% of control remaining” value does the source give for COC(=O)c1ccccc1S(=O)(=O)n1c(=O)n(CCc2c[nH]c3ccccc23)c2ccccc21 [CBK106509] here?
Answer: 146.036%

Question: With COCCNc1nccnc1-c1cccs1 [CBK036739] as the molecule, how does the “% of control remaining” value read?
Answer: 93.9299%

Question: With Cc1cc(Cc2cnc(NC(=O)C3CCS(=O)(=O)C3)s2)ccc1Br (stereo not shown) [CBK298281] as the molecule, how does the “% of control remaining” value read?
Answer: 93.6946%

Question: How did the “% of control remaining” value turn out when CN(CC(=O)Nc1sc2c(c1C#N)CCCC2)Cc1cnn(C)c1 [CBK304618] was run?
Answer: 129.246%

Question: CCN(CC)C(=O)CN1CCCN(c2cc(OCc3cc(C)on3)ncn2)CC1 [CBK083337T] was tested. Which “% of control remaining” value did it give?
Answer: 107.175%

Question: How did the “% of control remaining” value turn out when O=C(CO)N1CC2(CCN(Cc3ccc(Cl)c(Cl)c3)CC2)c2ccccc21 [CBK131495] was run?
Answer: 83.7584%

Question: For Cc1ccc(S(=O)(=O)NCC23C=CC(O2)C2C(=O)N(Cc4ccccc4)C(=O)C23)cc1 (stereo not shown) [CBK261170], which “% of control remaining” value is on record?
Answer: 85.4229%

Question: For Cc1nc(-c2cccnc2)sc1C(=O)NC(C)C1CC2CCC1C2 (stereo not shown) [CBK281637], which “% of control remaining” value is on record?
Answer: 136.16%

Question: For CCc1ccc(NC(=O)CN2CCN(c3ccccc3F)CC2)cc1 [CBK307549], which “% of control remaining” value is on record?
Answer: 103.41%

Question: Which “% of control remaining” value does the source give for O=C(O)C(Cc1ccccc1)Nc1ncnc2sc3c(c12)CCC3 (stereo not shown) [CBK265266] here?
Answer: 110.225%

Question: Which “% of control remaining” value does the source give for COC(=O)c1ccc(NC(=O)N2CCCCC2CCn2ccnc2)cc1 (stereo not shown) [CBK307195] here?
Answer: 138.694%

Question: CCCN1C(C)=NS(=O)(=O)c2cc(C(=O)O)ccc21 [CBK287251] was tested. Which “% of control remaining” value did it give?
Answer: 112.666%

Question: How did the “% of control remaining” value turn out when CCOC(=O)C1CCCN(CCC(=O)Nc2ccccc2)C1 (stereo not shown) [CBK264192C] was run?
Answer: 115.061%

Question: Which “% of control remaining” value does the source give for O=C(O)c1cc(NC(=O)c2cccc(N3C(=O)c4ccc([N+](=O)[O-])cc4C3=O)c2)cc(C(=O)O)c1 [CBK261394] here?
Answer: 101.945%

Question: With COc1ccc(-c2nc3cc(NC(=O)COc4ccccc4[N+](=O)[O-])ccc3o2)cc1Cl [CBK263412] as the molecule, how does the “% of control remaining” value read?
Answer: 120.2%

Question: Which “% of control remaining” value does the source give for COc1ccc(CN(C(=O)CCN2C(=O)c3ccccc3S2(=O)=O)c2ccccc2O)cc1 [CBK265973] here?
Answer: 100%

Question: COc1cc([N+](=O)[O-])ccc1NC(=O)NCc1ccco1 [CBK266855] was tested. Which “% of control remaining” value did it give?
Answer: 134.326%

Question: With NS(=O)(=O)c1ccccc1NC(=O)NC1CCCCC1 [CBK016919] as the molecule, how does the “% of control remaining” value read?
Answer: 157.107%

Question: How did the “% of control remaining” value turn out when O=C(CSc1nnc(-c2ccccc2O)n1Cc1ccccc1)NC12CC3CC(CC(C3)C1)C2 [CBK266075] was run?
Answer: 100.809%

Question: With CCOC(=O)CNS(=O)(=O)c1cccc2cccnc12 [CBK034440] as the molecule, how does the “% of control remaining” value read?
Answer: 97.943%

Question: O=C(NC(=S)Nc1ccccc1C(=O)O)c1ccc(Cl)cc1 [CBK265044] was tested. Which “% of control remaining” value did it give?
Answer: 88.4666%

Question: How did the “% of control remaining” value turn out when O=C(O)C1CCCCC1C(=O)N1CCN(C(c2ccccc2)c2ccccc2)CC1 (stereo not shown) [CBK265480] was run?
Answer: 113.381%

Question: With O=C(OCCC1SC(NC2CC3C=CC2C3)=NC1=O)c1cc(F)ccc1F (stereo not shown) [CBK200059T] as the molecule, how does the “% of control remaining” value read?
Answer: 134.071%

Question: With CN1CCCC1CCNC(=O)c1ccc(-c2ccoc2)nc1 (stereo not shown) [CBK156255] as the molecule, how does the “% of control remaining” value read?
Answer: 100%

Question: How did the “% of control remaining” value turn out when COc1ccc(Cn2nc3nnc(-c4ccc(F)cc4)c(-c4ccc(F)cc4)n3c2=O)cc1 [CBK286183] was run?
Answer: 83.1369%

Question: For COc1cc2c(cc1OC)CN(CC(N)=O)CC2 [CBK126391], which “% of control remaining” value is on record?
Answer: 102.312%

Question: For CCN1CC(C(=O)N2CCCC(COc3ccc(F)cc3)C2)CC1=O (stereo not shown) [CBK282028], which “% of control remaining” value is on record?
Answer: 145.313%

Question: CCN(CC)C(=O)CN(CCc1ccc(OC)c(OC)c1)C(=O)NCCN1CCOCC1 [CBK158734] was tested. Which “% of control remaining” value did it give?
Answer: 111.731%
